# In PubChem BioAssay AID504834 (National Center for Advancing Translational Sciences (NCATS), 2011):
# In all, about 320,000 compounds went through this assay and about 22,000 (6.9%) were called active. Inconclusive results, whose numbers are uncertain, are shown with a selection of clear calls. The call rests on the fitted dose curve; in most records, active means well fitted inhibition curve with a large enough effect; inconclusive means small, poorly fitted or top-dose-only effect, or another doubt; inactive means no such curve, though single readings can be large or run the other way. Potencies of inconclusive entries are doubtful fits and often do not repeat.
# Assay: Primary qHTS for delayed death inhibitors of the malarial parasite plastid, 96 hour incubation
# Conditions: P. falciparum luciferase reporter growth; series mostly up to 28.7 µM; activity change, negative = inhibition: at the top concentration
# Summary of the method: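 Infected RBCs, 2% Hct / 0.05% parasitemia final; luciferase-reporter P. falciparum; cpd 96 h, 37 C, 5% CO2; luciferase detection reagent; luminescence.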
# On the % scale 0 is the no-effect control and ±100 the full control effect; potency means the concentration at half of the fitted maximal effect.
SMILES,Potency,"activity change, negative = inhibition"
Cc1cc(C(F)F)n2ncc(C(=O)N3CCCCC3)c2n1,"inconclusive: 2.33 µM [inhibitor, full curve, poor fit]",
Cc1ccc(CN2C(=O)CCC2C(=O)NCCCN2CCOCC2)cc1 (centres undefined),"inconclusive: 0.465 µM [inhibitor, full curve]",
CCC(C)c1ccccc1N1CC(C(=O)Nc2cccc(S(=O)(=O)N3CCOCC3)c2)CC1=O (centres undefined),"inconclusive: 10.4 µM [inhibitor, single point]",
CCOC(=O)Nc1ccc(C(=O)Oc2ccccc2)c(O)c1,,inactive: 109%
CCOc1ccc(S(=O)(=O)NCCC(=O)NCC(c2cccs2)N(C)C)cc1 (centres undefined),"inconclusive: 20.8 µM [inhibitor, partial curve, poor fit]",
CCCCNC(=S)N=Nc1c(O)n(Cc2ccccc2)c2ccccc12,active: 10.4 µM,
Cn1c(/C=C(\C#N)C(N)=S)ccc1-c1ccc(Br)cc1,"inconclusive: 4.65 µM [inhibitor, single point]",
C=CCNC(=O)/C(=C/c1cn(-c2ccccc2)nc1-c1cccc([N+](=O)[O-])c1)NC(=O)c1ccccc1,active: 4.15 µM,
Cc1ccc2c(c1)nnn2C1CCN(CC(=O)NCCc2ccccc2)CC1,,inactive: -0.21% [at 5.75 µM]
CC(C)c1nnc(NC(=O)CCC(=O)Nc2ccc(Cl)cc2)s1,"inconclusive: 5.22 µM [inhibitor, partial curve]",
COc1ccc(NC(=S)Nc2ncccc2C)c(OC)c1,"inconclusive: 0.0029 µM [inhibitor, full curve, poor fit]",
COC(=O)c1ccc(NC(=O)CN2C(=O)CCC2=O)cc1,"inconclusive: 18.5 µM [inhibitor, single point]",
O=C(O)C1CCN(C(=O)COc2ccc(Br)cc2)CC1,,inactive: -15.1%
COCCN1C(=NCCCOC(C)C)N[C@@H](c2ccccc2)C(C(=O)OC)=C1C,inactive,
COc1ccc(C(CC(=O)N2CCCC2)c2ccc(F)cc2)cc1 (centres undefined),,inactive: -11.8%
CC1Sc2ccc(S(=O)(=O)CCC(=O)NCc3ccccc3)cc2NC1=O (centres undefined),"inconclusive: 2.62 µM [inhibitor, single point]",
CC(C)n1c(O)c(N=NC(=O)Cc2csc(N3CCOCC3)n2)c2ccccc21,"inconclusive: 18.5 µM [inhibitor, single point]",
NS(=O)(=O)c1ccc(N2N=C(c3ccc(Br)cc3)CC2c2ccc(F)cc2)cc1 (centres undefined),"inconclusive: 14.7 µM [inhibitor, single point]",
COc1cccc(NC(=O)C(=O)N/N=C(\C)CC(=O)Nc2ccc(NC(C)=O)cc2)c1,,inactive: 114%

# Quoted from the results shown, 2 compounds:
SMILES,Potency,"activity change, negative = inhibition"
C=CCNC(=O)/C(=C/c1cn(-c2ccccc2)nc1-c1cccc([N+](=O)[O-])c1)NC(=O)c1ccccc1,active: 4.15 µM,
Cc1ccc2c(c1)nnn2C1CCN(CC(=O)NCCc2ccccc2)CC1,,inactive: -0.21% [at 5.75 µM]
